{
  "source": "the supplement of paper PMC11732987",
  "about": "“Enantioselective OTUD7B fragment discovery through chemoproteomics screening and high-throughput optimisation” (Communications Chemistry, 2025)",
  "note": "Some of the results follow. The data scatter; read single values as rough.",
  "data": [
    {"compound": "ClCC(=O)N[C@H]1CCCc2ccccc12", "assay": "log2 mean competition ratio of IA-DTB cysteine labelling (DMSO/compound) (log2 ratio); higher = stronger cysteine engagement by compound", "details": "200 µM; treatment time: 4 h; cell line lysate: HEK293T", "description": "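IA-DTB competitive cysteine chemoproteomics in HEK293T RIPA lysate. Lysates were treated with compound 29 or 30 at 50 or 200 µM for 4 h, then IA-DTB (500 µM, 1 h), trypsin-digested, NeutrAvidin-enriched and analysed by diaPASEF. Competition ratio = intensity DMSO / intensity compound (n=4 treated, n=64 DMSO); binding: mean log2 CR ≥ 1 and p ≤ 0.05 plus QC filters. Target is the cysteine site.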", "values": [
      {"target": "NOP58 C205 (UniProt Q9Y2X3)", "log2 mean competition ratio": 0.252},
      {"target": "NOL10 C202 (UniProt Q9BSC4)", "log2 mean competition ratio": -0.094},
      {"target": "NLRX1 C331 (UniProt Q86UT6)", "log2 mean competition ratio": -0.159},
      {"target": "NIPBL C2374 (UniProt Q6KC79)", "log2 mean competition ratio": -0.0478},
      {"target": "NASP C254 (UniProt P49321)", "log2 mean competition ratio": 0.187},
      {"target": "NOA1 C364 (UniProt Q8NC60)", "log2 mean competition ratio": -0.027},
      {"target": "NFAT5 C108 (UniProt O94916)", "log2 mean competition ratio": -0.289},
      {"target": "NIPBL C1889 (UniProt Q6KC79)", "log2 mean competition ratio": 0.237},
      {"target": "NAT1 C148 (UniProt P18440)", "log2 mean competition ratio": -0.265},
      {"target": "NCAPG C966 (UniProt Q9BPX3)", "log2 mean competition ratio": -0.288},
      {"target": "NFATC4 C350 (UniProt Q14934)", "log2 mean competition ratio": -0.173},
      {"target": "NAV1 C1508 (UniProt Q8NEY1)", "log2 mean competition ratio": 0.147},
      {"target": "NEK3 C504 (UniProt P51956)", "log2 mean competition ratio": 0.16},
      {"target": "NIT2 C44 (UniProt Q9NQR4)", "log2 mean competition ratio": -0.0647},
      {"target": "NFKB2 C4 (UniProt Q00653)", "log2 mean competition ratio": -0.0439},
      {"target": "NOA1 C272 (UniProt Q8NC60)", "log2 mean competition ratio": 0.248},
      {"target": "NEK9 C878 (UniProt Q8TD19)", "log2 mean competition ratio": 0.136},
      {"target": "NATD1 C17 (UniProt Q8N6N6)", "log2 mean competition ratio": -0.0298},
      {"target": "NFX1 C661 (UniProt Q12986)", "log2 mean competition ratio": 0.0279},
      {"target": "NIN C297 (UniProt Q8N4C6)", "log2 mean competition ratio": -0.0773},
      {"target": "NDC80 C449 (UniProt O14777)", "log2 mean competition ratio": 0.0276},
      {"target": "NAV1 C1446 (UniProt Q8NEY1)", "log2 mean competition ratio": 0.386},
      {"target": "NFX1 C1067 (UniProt Q12986)", "log2 mean competition ratio": -0.106},
      {"target": "NGLY1 C21 (UniProt Q96IV0)", "log2 mean competition ratio": 0.0857},
      {"target": "NIBAN2 C512 (UniProt Q96TA1)", "log2 mean competition ratio": 0.195},
      {"target": "NCAPD3 C330 (UniProt P42695)", "log2 mean competition ratio": 0.313},
      {"target": "NBEA C315 (UniProt Q8NFP9)", "log2 mean competition ratio": -0.47},
      {"target": "NDOR1 C507 (UniProt Q9UHB4)", "log2 mean competition ratio": -0.54},
      {"target": "NDUFS2 C347 (UniProt O75306)", "log2 mean competition ratio": 0.362},
      {"target": "NDUFA8 C110 (UniProt P51970)", "log2 mean competition ratio": 0.409},
      {"target": "NCDN C351 (UniProt Q9UBB6)", "log2 mean competition ratio": -0.423},
      {"target": "NKIRAS2 C122 (UniProt Q9NYR9)", "log2 mean competition ratio": 0.0533},
      {"target": "NEK6 C40 (UniProt Q9HC98)", "log2 mean competition ratio": -0.123},
      {"target": "NOL8 C259 (UniProt Q76FK4)", "log2 mean competition ratio": 0.155},
      {"target": "NNT C308 (UniProt Q13423)", "log2 mean competition ratio": -0.157},
      {"target": "NME3 C158", "log2 mean competition ratio": 0.0512},
      {"target": "NCKAP1 C556 (UniProt Q9Y2A7)", "log2 mean competition ratio": -0.347}
    ]}
  ]
}
